Laboratory results reported in patent US20170276611A1, “CHALCOGENOPYRYLIUM DYES, COMPOSITIONS COMPRISING SAME, COMPOSITE NANOPARTICLES COMPRISING SAME, AND METHODS OF MAKING AND USING THE SAME” (The Research Foundation for The State University of New York, priority 2014, published 2017).

Key:
[1] = SERS of dye-HGN (hollow gold nanoshell) assemblies with 1064-nm excitation; conditions: dye-HGN assemblies with KCl, 5 s exposure, peak at 1590 cm^−1
[2] = SERRS intensity of silica-encapsulated gold SERRS-nanoprobes, 785-nm laser; conditions: for SERRS-signal intensity of the 1600 cm^−1 peak: nanoprobes made with 1.0 μM dye, 785 nm, 50 μW/cm^2, 1.0-s acquisition
[3] = SERS of dye-HGN (hollow gold nanoshell) assemblies with 1280-nm excitation; conditions: HGNs and KCl, 7 s exposure, peak at 1590 cm^−1

c1cc(N=Nc2ccncc2)ccn1 [AZPY, 4,4′-azopyridine, reference compound]
Limit of detection (LOD) [1]: 170 pM

C(=Cc1ccncc1)c1ccncc1 [BPE, bis(4-pyridyl)ethylene, reference compound]
Limit of detection (LOD) [1]: 52 pM

C(=Cc1cc(-c2ccccc2)[se+]c(-c2ccccc2)c1)C=C1C=C(c2cccs2)SC(c2cccs2)=C1.F[P-](F)(F)(F)(F)F [Dye 2a, 4-(3-(2,6-dithiophen-2-yl-4H-thiopyran-4-ylidene)prop-1-enyl)-2,6-diphenylselenopyrylium hexafluorophosphate]
SERRS-signal intensity of the 1600 cm^−1 peak [2]: significantly more intense than 1a/1b

C(=Cc1cc(-c2ccccc2)[s+]c(-c2ccccc2)c1)C=C1C=C(c2cccs2)SC(c2cccs2)=C1.F[P-](F)(F)(F)(F)F [Dye 2b, 4-(3-(2,6-dithiophen-2-yl-4H-thiopyran-4-ylidene)prop-1-enyl)-2,6-diphenylthiopyrylium hexafluorophosphate]
SERRS-signal intensity of the 1600 cm^−1 peak [2]: significantly more intense than 1a/1b

C(=Cc1cc(-c2cccs2)[s+]c(-c2cccs2)c1)C=C1C=C(c2cccs2)SC(c2cccs2)=C1.F[P-](F)(F)(F)(F)F [Dye 3, 4-(3-(2,6-dithiophen-2-yl-4H-thiopyran-4-ylidene)prop-1-enyl)-(2,6-dithiophen-2-yl)thiopyrylium hexafluorophosphate]
SERRS signal relative to IR792 nanoprobes ([2]; nanoprobes synthesized with equimolar (1.0 μM) dye): 5-6 fold

C(=Cc1cc(-c2cccs2)[s+]c(-c2cccs2)c1)C=C1C=C(c2cccs2)SC(c2cccs2)=C1.F[P-](F)(F)(F)(F)F [Dye 13, 4-(3-(2,6-dithiophen-2-yl-4H-thiopyran-4-ylidene)prop-1-enyl)-(2,6-dithiophen-2-yl)thiopyrylium hexafluorophosphate]
Limit of detection (LOD) [3]: 11.5 pM

C(=Cc1cc(-c2ccc[se]2)[s+]c(-c2ccc[se]2)c1)C=C1C=C(c2ccc[se]2)SC(c2ccc[se]2)=C1.F[P-](F)(F)(F)(F)F [Dye 14, 4-(3-(2,6-di(selenophen-2-yl)-4H-thiopyran-4-ylidene)prop-1-en-1-yl)-2,6-di(selenophen-2-yl)thiopyrylium hexafluorophosphate]
Limit of detection (LOD) [3]: 1.47 pM
